The campaign covered roughly 52,000 sequences. About 210 (0.4%) were called active.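 How the source made its calls: active means gene whose silencing raises cell survival under the drug, median off-target-corrected z-score across its silencing RNAs 2 or more; inactive means the rest.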 Some of the results follow.

This assay in a line: Resistance to Poly (ADP-Ribose) Polymerase inhibitor: Gene Identification via Genome-wide siRNA Screen. Particulars: mouse BRCA2 R2336H ES cells, olaparib, CellTiter-Glo viability; hits give high values. A digest of the protocol: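 Genome-wide siRNA screen (3 siRNAs/gene, 20 nM) in mouse ES cells carrying hypomorphic BRCA2 R2336H; olaparib 500 nM added 48 h post-transfection, CellTiter-Glo viability 72 h later. Normalized to plate-median negative control; MAD z-scores, gene median, seed-adjusted.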
Consider GCUGUGUACUCUGCCCUGATT against Olfr346, for which the z-score was inactive: -0.851. In the case of GAAUUCCAGCUUAUUCCUUTT against Klra15, the z-score is inactive: 0.0764. To GGCAGCCAAGAGAUUGAAUTT against Suclg2 belongs inactive: 0.874; to GGUUGUUUGACCAACAGCUTT against Inpp5d, inactive: -0.0229; to GGUGAUAUUGUUGUACUUATT against Olfr1058, inactive: 0.595.

With “GGAAGUGGUGGAACUCCUGTT against A930001M12Rik”, the z-score is inactive: -0.535.

Turning to GGAAAGUUUGAAGAUGUGUTT against Mknk1, the z-score is inactive: -0.888.

In the case of CGAUCGUAUUCAAUGGAAATT against Rims2, the z-score is inactive: 0.0642. To GGUCAUGCACACUCGAAAUTT against Mrpl54 belongs inactive: 0.673.

As to GCUUUGAUAGAUACUUCUGTT against Chrm2, the z-score is inactive: 1.47. Regarding “CCAGGAUUAUAGGUUUUAGTT against F830104D24Rik”, the z-score is inactive: 0.877. Consider GGUGGUAUGCAAGAUUACATT against Cpd, for which the z-score is inactive: 0.113. To GGAAUCUGUCAUGUGAAUATT against Slc1a5 belongs inactive: 0.896; to GCGUAUCCCAGAUAUCCGATT against BC064033, inactive: 0.0741; to “GCAUACCUCCGUAUUGUGATT against 4732481H14Rik”, inactive: -0.138.

With GCUGAUACGAGGAACAGAGTT against Fmr1nb, the z-score was inactive: -0.626. To “GCAGAGAGGAUAACUGACCTT against B430110G05Rik” belongs inactive: -0.961; to “GGAGUUACGCCGAAACAGGTT against 1700049M11Rik”, inactive: -1.18.

For “GGAUCCAAGUUCCUGGCUCTT against A330096I21Rik”, the z-score was inactive: -0.601. To GCCAACGUAUUUGUGGCAUTT against Olfr1183 belongs inactive: 0.566; to GGAAGACAAAGUCUGGGUGTT against Hpxn, inactive: 0.0033. To GCUACAGGUCAAUGUCGUGTT against Tcte2 belongs inactive: -0.14; to CGUGGCUUCUUUCCGCUCUTT against Mtmr4, inactive: 0.604. For GCAUCAUUACUGGAUUCCUTT against Olfr859, the z-score was inactive: -0.826. Then GCUUCAAUGUAUUUUUUGCTT against Olfr1459, with inactive: -1.35; and GGCCUGGGAAGUGAACAAATT against Faah, with inactive: -1.56. To GGAGCUUUCCAUAUAUAAGTT against Sgcb belongs inactive: 1.16; to CCAAAGAUCGGGAAAAGGATT against LOC545475, inactive: 1.08.

On to GGUGCUAAUGACCUUUGAATT against Dbp, for which the z-score was inactive: -2.21. Then CCAUAAUUCCAGAACAUACTT against Hspg2, with inactive: -1.3; and “GGCUAGAGAAAUAGUGUUGTT against D6Ertd253e”, with inactive: -0.28; and “GGAACUAAAUAUCCCUAUGTT against 2010003I19Rik”, with inactive: 1.46.

GGAUGCUCUGGUUACAUUATT against Wdt2: the z-score is inactive: 0.52. To “GGGUAUUUUGUACGAACACTT against 1600020H07Rik” belongs inactive: -0.992; to “GGAUUUUAAAGUCAUGUCATT against D130040H23Rik”, inactive: -0.25. To GCCUAAGCUUGUAUGUUUGTT against Anapc2 belongs inactive: -0.298; to “GCAAGCUACAUGCAUACAUTT against A630033E08Rik”, inactive: 0.362. Regarding GGAUGAAGAGGUUGGAGAUTT against Cct3, the z-score is inactive: -3.14.

For the sequence GGCCCUCUCCAAGUCUAUATT against Pex7, the z-score is inactive: -1.91. Then “GGAGAAAUCGGAUGUGAAUTT against 1110030K22Rik”, with inactive: 0.12; and CGGCAAGAUGUCUACUAACTT against Wdtc1, with inactive: -0.584; and “GGUCAUGUUUGGUUAGAAGTT against 1500034J20Rik”, with inactive: -1.07. To “GGCAACUGCCUUUACCAUATT against 6330404A07Rik” belongs inactive: 1.84. On to GUCCCUCUGUUCGUCACGUTT against Olfr1449, for which the z-score is inactive: -0.23. GGUUCUGAAUGGUUAUUUCTT against Itih5: the z-score is inactive: 1.26. To “GGAUUGGUGAUCUAUGUGUTT against 6530401N04Rik” belongs inactive: 0.072; to GCUGAGUAGACUUCGUCUGTT against Kifc2, inactive: 0.502; to GCAGGAUUCAAAGAUCUAATT against Takrp, inactive: -1.08.

Consider GGACUACAUGGAUGCCAUGTT against Prkrip1, for which the z-score was inactive: -1.3. Then GGUGCAGAGAAGUGUAACATT against Slc25a21, with inactive: -0.0441; and CCUGUACAGUUGGAAACAUTT against Snrpd1, with inactive: -2.07. To “GCUAUGACCGGAGGUUCUATT against 1700010A17Rik” belongs inactive: -2.15; to GGCGAAAAAAGCUAAGCAGTT against Rg9mtd1, inactive: -0.819.

On to GCUUCUGAUGGACAUUCACTT against Uhrf2, for which the z-score is inactive: -0.29. Take UACUUAGGCCCUUGAGCAUTT against Timm13a: the z-score is inactive: -2.17. To GGAAUAUGCCAAAAUGAAATT against Cdca1 belongs inactive: -2.15; to CCACUGCACCACAACUCAATT against Zfp36l2, inactive: -0.0833. To CGCGAACUGCUCUAUAGAGTT against Hmgcl belongs inactive: -0.0351; to UAGUCACAAGGUUUGAAACTT against LOC382106, inactive: 0.396. Then “GGUUCACGGGUUCUAAGAUTT against 1500010M16Rik”, with inactive: 1.8; and GGCACUGUGGUGUAAAUCCTT against Nnt, with inactive: -1.1; and GGGACUUCAUGCUAAGUUUTT against Smarcd3, with inactive: -0.47. With CCACUCUGUUAUCACCGAGTT against Olfr774, the z-score was inactive: 0.182. Take “GGAUCUCUAACUUCACCAGTT against 2410042D21Rik”: the z-score was inactive: 1.52. To “GCUUUGGAGAGUCAGUAAATT against A130070M06” belongs inactive: -0.748; to GGUAGGAGGUAUUUCCCACTT against Scotin, inactive: 0.655. On to GGCUUAUAUUCAACCAUGGTT against Elavl4, for which the z-score was inactive: 0.77. Then GGAGACCCUGGUGAGAAGATT against Emid1, with inactive: 0.87; and CCACAAUUUGAGAACAUUUTT against Tyrp1, with inactive: -1.58; and GGAGAUCAUGCUCAAGAACTT against Dgke, with inactive: 0.968. Then GCAAAGUUGGUGACGUGAUTT against Pole2, with inactive: 0.716; and GGAAAGCAAUGCAUUACAATT against Zfp482, with inactive: 1.28; and GGAAUCUAGACUUAAUUCUTT against Trp53inp1, with inactive: 1.

For the sequence CCCUCAGAUUCAAAAAGUGTT against Krt2-1, the z-score was inactive: 0.097. Then GGGAGACCACAAUCAGCCATT against Kirrel1, with inactive: -0.212.

As to GGUCUUACGUUGGAUUUUUTT against Extl3, the z-score was inactive: 1.38. Then GGAAUUUAUUCACCCAGACTT against Sirt2, with inactive: 0.416; and GUCUGAACCCAUCUUCUAUTT against Hcrt, with inactive: 0.0318.

For CCAAUGGAAAAAGUGCACATT against Olfr1061, the z-score is inactive: 0.727. To GCUCAUAGGUUUUGAGUAATT against Wt1 belongs inactive: -0.233; to GGACCAUUAAACUAAAUGGTT against Tpte, inactive: -0.534. Consider “CGAUGACGAUGCCUAACCATT against A930013B10Rik”, for which the z-score was inactive: -1.35. Then GGUGGAUACAGAAAGUCAUTT against F2, with inactive: 0.357; and CCUUAAUCCAAACAAGUCUTT against Ncl, with inactive: -0.618. Then CCCGGAAGACACUAAAACUTT against Gmeb1, with inactive: -1.3; and “GGAAUAAGAAGCCACUCUATT against 2310044D20Rik”, with inactive: -0.17; and GAACUUGAUCCUCCCUGUCTT against Bglap-rs1, with inactive: 1.45. Then CGACACCUAAGUUCAGCACTT against Smcr7, with inactive: 0.564; and GGUAGACAGAGAAGAUAAATT against Slc35f5, with inactive: 1.96; and CCUUCAGGGUGCUUCUCUATT against Mrgpra6, with inactive: -2.59.

Consider “GCUAUAACCUCACCGAGAATT against 1600002H07Rik”, for which the z-score was inactive: 1.54. To “GCAUUGACAAGAUAUCUAATT against 2210412D01Rik” belongs inactive: 0.303; to “GGAAGAACGAAAAUAUCUGTT against 4921536I21Rik”, inactive: -0.595.

As to GCUCCAUUUGAGGAACAAGTT against Zfp277, the z-score was inactive: -0.689.

“GGAAGAACUUCAGAAUGCATT against 1810035L17Rik”: the z-score was inactive: -0.717. Then GGGAAAGUCGUUGAAAUUUTT against Stx18, with inactive: -0.33. To GGAACGGAUACGGUUUCAUTT against Nsep1 belongs inactive: 0.466; to GGAAGUGUUCAAACCAGAGTT against LOC229512, inactive: -1.89. Then GGAGUUUGGAACUUCCAACTT against Tcf21, with inactive: -0.297. On to GGCUCACGAGGAACUAAAUTT against BC037708, for which the z-score was inactive: 0.19. With “GCCAUUCGAGUUUUAUAUGTT against C330026N02Rik”, the z-score is inactive: -0.366. To GCACUAAAGAAGUUACUGCTT against Olfr126 belongs inactive: 0.647; to “GGAAACACCAGGUUUAUAUTT against 2610511O17Rik”, inactive: -0.781.

The record behind these values is PubChem BioAssay AID1347423 (Functional Genomics Laboratory (NCATS/FGL), 2020).
